Measurements: patent publication US10874727B2, “Inducible regulatory t-cell generation for hematopoietic transplants” (The Trustees of the University of Pennsylvania, priority 2008, dated 2020)
At least one compound was matched to its structure with a doubt left.

Test system: PBMNCs
Assay: Suppression by expanded Tregs (ratios of Tregs to PBMNCs)
Format: cell-based, human
Conditions: Rapa added to KT64/86 driven cultures
Excerpt: Adding rapa, which is an mTOR inhibitor, (labeled as +) reduced mean expansion rates by 30-fold with beads resulting in ≤10-fold mean expansion rates by day 14.

Question: `CO[C@H]1C[C@@H]2CC[C@@H](C)[C@@](O)(O2)C(=O)C(=O)N2CCCC[C@H]2C(=O)O[C@H]([C@H](C)C[C@@H]2CC[C@@H](O)[C@H](OC)C2)CC(=O)[C@H](C)/C=C(\C)[C@@H](O)[C@@H](OC)C(=O)[C@H](C)C[C@H](C)/C=C/C=C/C=C/1C` [rapa, rapamycin] was tested. Which suppression did it give?
Answer: improved suppression
